# Measured values: patent US8158792B2, “Spiropiperidines for use as tryptase inhibitors” (Janssen Pharmaceutica N.V., priority 2007, dated 2012)
# For at least one compound, name, drawing or mass did not settle the structure.
# Target: human lung tryptase
# Test: β-Tryptase In-Vitro Enzyme Assay
# Assay type: biochemical
# Conditions: human lung tryptase 1 nM, substrate H-D-HHT-Ala-Arg-pNa 500 μM, pH 7.4, room temperature
# Method: The β-tryptase assay was conducted with human lung tryptase (Cortex Biochem #CP3033) in an aqueous buffer (10 mM Tris, 10 mM Hepes, 150 mM NaCl, 0.1% PEG 8000, pH 7.4) using the chromogenic substrate H-D-HHT-Ala-Arg-pNa. […] Percent inhibition was calculated by comparing the initial reaction velocity of samples without inhibitor to those with inhibitor. The initial reaction velocities were analyzed using Microsoft Excel.
smiles,measurement,value
"NCc1ccc2c(c1)C1(CCN(C(=O)c3cc4c(s3)CC3(CCCCC3)CC4)CC1)CO2 [Cpd 260, spiro[cyclohexane-1,6′-5,7-dihydro-4H-benzo[b]thiophene]-2′-carbonyl-5′-aminomethyl-spiro[piperidine-4,3′-(2H)-benzo[b]furan]]",IC50,1.2 µM
